Measurements taken from paper PMC10507087.
These are yes or no findings as the source states them, for the method shown. Binding seen in cells or lysates may run through a third protein. Some binding calls cover weakened binding; strength is not graded here.

The chains behind the UniProt entries cited, without tags or fusion partners. Residues count along the entry.
UniProt Q9NZQ7, residues 19-290: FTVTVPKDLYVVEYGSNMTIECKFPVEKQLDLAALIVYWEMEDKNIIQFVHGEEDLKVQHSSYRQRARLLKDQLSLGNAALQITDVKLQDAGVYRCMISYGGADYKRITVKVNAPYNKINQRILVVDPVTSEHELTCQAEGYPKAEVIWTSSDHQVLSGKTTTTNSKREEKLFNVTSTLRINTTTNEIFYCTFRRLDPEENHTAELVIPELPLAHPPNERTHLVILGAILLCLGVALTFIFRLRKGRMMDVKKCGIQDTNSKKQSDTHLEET

Target: T1, activating transcription factor-3 (ATF3) (human (endogenous in E109 and Kyse150)) (UniProt P18847)
T1 sequence: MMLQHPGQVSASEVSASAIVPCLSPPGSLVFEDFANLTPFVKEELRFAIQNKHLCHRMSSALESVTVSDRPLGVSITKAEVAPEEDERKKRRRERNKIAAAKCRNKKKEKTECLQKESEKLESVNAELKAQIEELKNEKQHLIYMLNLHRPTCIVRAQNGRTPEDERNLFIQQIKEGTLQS
Assay: co-IP; clarified supernatants of E109 and Kyse150 cells incubated with anti-ATF3 antibody for 4 h at 4 °C, then Protein A/G magnetic beads overnight; five washes with cell lysis buffer; western blot

PD-L1 (from UniProt Q9NZQ7 19-290) was tested, and the binding was “binds”.
